{
  "sequences": {"note": "Sequences of proteins named here, by UniProt entry; tags and fusion partners are left off. Residues count along the entry.", "UniProt Q03431, residues 27-593": "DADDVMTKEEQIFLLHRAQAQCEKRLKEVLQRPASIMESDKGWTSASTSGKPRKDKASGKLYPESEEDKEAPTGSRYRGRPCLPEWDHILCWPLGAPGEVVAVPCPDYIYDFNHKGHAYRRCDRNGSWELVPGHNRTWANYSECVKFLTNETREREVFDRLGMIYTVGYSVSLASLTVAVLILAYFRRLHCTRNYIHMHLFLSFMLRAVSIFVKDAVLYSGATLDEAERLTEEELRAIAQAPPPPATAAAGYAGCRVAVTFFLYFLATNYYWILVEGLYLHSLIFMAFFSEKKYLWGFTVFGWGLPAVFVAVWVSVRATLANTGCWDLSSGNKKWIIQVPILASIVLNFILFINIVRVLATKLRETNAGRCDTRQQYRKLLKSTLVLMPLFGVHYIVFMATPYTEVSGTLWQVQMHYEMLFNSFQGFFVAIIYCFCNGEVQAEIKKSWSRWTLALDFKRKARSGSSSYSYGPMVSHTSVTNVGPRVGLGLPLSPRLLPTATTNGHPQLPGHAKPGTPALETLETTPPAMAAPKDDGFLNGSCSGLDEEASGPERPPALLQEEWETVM", "UniProt P32120": "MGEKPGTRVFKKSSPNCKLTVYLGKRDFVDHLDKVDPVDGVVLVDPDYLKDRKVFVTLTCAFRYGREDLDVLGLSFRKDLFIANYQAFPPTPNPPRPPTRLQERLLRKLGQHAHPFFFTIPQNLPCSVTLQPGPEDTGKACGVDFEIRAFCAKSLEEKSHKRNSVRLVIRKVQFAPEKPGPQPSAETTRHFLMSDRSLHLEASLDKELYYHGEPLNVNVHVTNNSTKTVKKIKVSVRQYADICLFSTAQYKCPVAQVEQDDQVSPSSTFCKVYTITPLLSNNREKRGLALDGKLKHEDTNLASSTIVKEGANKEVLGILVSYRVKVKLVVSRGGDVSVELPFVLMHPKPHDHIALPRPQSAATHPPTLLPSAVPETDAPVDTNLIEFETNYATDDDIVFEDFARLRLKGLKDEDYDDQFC", "UniProt P17870": "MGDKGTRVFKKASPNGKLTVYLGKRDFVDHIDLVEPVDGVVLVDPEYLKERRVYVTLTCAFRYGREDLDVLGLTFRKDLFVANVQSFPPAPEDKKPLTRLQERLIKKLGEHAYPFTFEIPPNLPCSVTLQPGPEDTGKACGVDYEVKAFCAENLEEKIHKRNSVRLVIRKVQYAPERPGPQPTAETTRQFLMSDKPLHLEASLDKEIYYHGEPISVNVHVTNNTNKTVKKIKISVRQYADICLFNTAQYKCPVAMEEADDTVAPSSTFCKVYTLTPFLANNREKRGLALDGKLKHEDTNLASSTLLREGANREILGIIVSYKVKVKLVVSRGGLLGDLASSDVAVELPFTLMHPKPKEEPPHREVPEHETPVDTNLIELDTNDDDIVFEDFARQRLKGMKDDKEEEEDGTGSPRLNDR"},
  "source": "paper PMC7645262",
  "biological_target": "PTH1R-LgBiT (UniProt Q03431)",
  "assay": "split reporter; NanoBiT complementation in live HEK293T cells, SmBiT-βarr1/2 (or Bpa variants) with PTH1R-LgBiT; 200 nM PTH(1-34), luminescence monitored 45 min at 37°C",
  "note": "No constants are given. Whether binding was seen depends on the method and setting. Binding seen in cells or lysates may run through a third protein. Some entries that bind do so weakly or less than the wild type.",
  "data": [
    {"substance": "SmBiT-βarr2 (from UniProt P32120 1-420)", "values": [
      {"measurement": "binding", "value": "binds"}
    ]},
    {"substance": "SmBiT-βarr1 (from UniProt P17870 1-418)", "values": [
      {"measurement": "binding", "value": "binds"}
    ]}
  ]
}
